This note sets out measurements from patent US20040132096A1.

Protein sequences, listed by entry. Tags and fused reporters are not part of them. Lines headed by an entry give the natural chain unless they say otherwise; changes in a name come on top.
UniProt Q9NQC3: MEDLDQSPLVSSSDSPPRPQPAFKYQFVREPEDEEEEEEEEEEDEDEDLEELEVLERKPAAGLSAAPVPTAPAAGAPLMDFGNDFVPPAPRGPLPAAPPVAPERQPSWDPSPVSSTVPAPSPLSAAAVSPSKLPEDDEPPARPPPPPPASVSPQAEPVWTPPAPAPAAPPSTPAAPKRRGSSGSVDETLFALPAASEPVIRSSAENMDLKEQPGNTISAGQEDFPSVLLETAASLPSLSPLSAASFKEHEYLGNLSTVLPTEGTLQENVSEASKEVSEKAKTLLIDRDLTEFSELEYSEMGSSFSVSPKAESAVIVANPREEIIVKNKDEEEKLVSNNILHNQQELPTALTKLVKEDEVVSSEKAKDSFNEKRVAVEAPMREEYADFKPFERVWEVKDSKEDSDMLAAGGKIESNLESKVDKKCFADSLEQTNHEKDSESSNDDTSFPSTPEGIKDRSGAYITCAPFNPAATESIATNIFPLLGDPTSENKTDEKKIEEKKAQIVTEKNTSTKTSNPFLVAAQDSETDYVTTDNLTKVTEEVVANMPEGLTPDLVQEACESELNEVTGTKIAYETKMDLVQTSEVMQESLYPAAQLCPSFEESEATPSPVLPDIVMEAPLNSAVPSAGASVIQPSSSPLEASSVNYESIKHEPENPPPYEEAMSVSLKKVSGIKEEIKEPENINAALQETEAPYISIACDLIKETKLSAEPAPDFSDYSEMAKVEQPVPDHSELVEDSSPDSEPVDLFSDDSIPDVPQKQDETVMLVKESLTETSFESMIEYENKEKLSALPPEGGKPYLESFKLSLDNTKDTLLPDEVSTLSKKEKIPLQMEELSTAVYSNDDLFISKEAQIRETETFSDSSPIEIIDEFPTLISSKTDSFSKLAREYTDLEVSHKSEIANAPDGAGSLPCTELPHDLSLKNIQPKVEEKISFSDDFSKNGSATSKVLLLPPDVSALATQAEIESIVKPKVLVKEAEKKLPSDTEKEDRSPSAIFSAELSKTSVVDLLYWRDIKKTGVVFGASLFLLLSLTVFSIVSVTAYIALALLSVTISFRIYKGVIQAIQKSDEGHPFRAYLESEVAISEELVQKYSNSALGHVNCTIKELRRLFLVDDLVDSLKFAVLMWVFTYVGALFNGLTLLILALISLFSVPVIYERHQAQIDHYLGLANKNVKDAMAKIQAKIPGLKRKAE

Assay [1] deals with NogoB (ASY) (Homo sapiens (Human)) (UniProt Q9NQC3). As to the kind of experiment: co-immunoprecipitation from cell lysates.
Assay [2] has the same target. The assay is described as follows: His-tagged BACE purified from HEK293 membrane fraction on Ni-NTA then anti-His sepharose; co-purified gel bands identified by LC/MS/MS.

These are yes or no findings as the source states them, for the method shown. Binding seen in cells or lysates may run through a third protein. Some results given as binding are weak or reduced against the parent protein; the word gives no strength. Sequences can lack the tags named with a protein.

B1: BACE1 with an 8 residue histidine tag inserted in frame at the C-terminus (enzyme)
chain: ETDEEPEEPGRRGSFVEMVDNLRGKSGQGYYVEMTVGSPPQTLNILVDTGSSNFAVGAAPHPFLHRYYQRQLSSTYRDLRKGVYVPYTQGKWEGELGTDLVSIPHGPNVTVRANIAAITESDKFFINGSNWEGILGLAYAEIARPDDSLEPFFDSLVKQTHVPNLFSLQLCGAGFPLNQSEVLASVGGSMIIGGIDHSLYTGSLWYTPIRREWYYEVIIVRVEINGQDLKMDCKEYNYDKSIVDSGTTNLRLPKKVFEAAVKSIKAASSTEKFPDGFWLGEQLVCWQAGTTPWNIFPVISLYLMGEVTNQSFRITILPQQYLRPVEDVATSQDDCYKFAISQSSTGTVMGAVIMEGFYVVFDRARKRIGFAVSACHVHDEFRTAAVEGPFVTLDMEDCGYNIPQTDESTLMTIAYVMAAICALFMLPLCLMVCQWRCLRCLRQQHDDFADDISLLKHHHHHHHH
As for B1, the binding entry in assay [1] and in assay [2] was “binds” each time.
